Reference: the supplement of paper PMC10032668
This is one part of the list. Only hits are listed; about a third recur on repeated control peptides.

Amino acid sequences for entries named in this document (tags omitted).
CUL4B, Q13620, UniProt Q13620, whole entry: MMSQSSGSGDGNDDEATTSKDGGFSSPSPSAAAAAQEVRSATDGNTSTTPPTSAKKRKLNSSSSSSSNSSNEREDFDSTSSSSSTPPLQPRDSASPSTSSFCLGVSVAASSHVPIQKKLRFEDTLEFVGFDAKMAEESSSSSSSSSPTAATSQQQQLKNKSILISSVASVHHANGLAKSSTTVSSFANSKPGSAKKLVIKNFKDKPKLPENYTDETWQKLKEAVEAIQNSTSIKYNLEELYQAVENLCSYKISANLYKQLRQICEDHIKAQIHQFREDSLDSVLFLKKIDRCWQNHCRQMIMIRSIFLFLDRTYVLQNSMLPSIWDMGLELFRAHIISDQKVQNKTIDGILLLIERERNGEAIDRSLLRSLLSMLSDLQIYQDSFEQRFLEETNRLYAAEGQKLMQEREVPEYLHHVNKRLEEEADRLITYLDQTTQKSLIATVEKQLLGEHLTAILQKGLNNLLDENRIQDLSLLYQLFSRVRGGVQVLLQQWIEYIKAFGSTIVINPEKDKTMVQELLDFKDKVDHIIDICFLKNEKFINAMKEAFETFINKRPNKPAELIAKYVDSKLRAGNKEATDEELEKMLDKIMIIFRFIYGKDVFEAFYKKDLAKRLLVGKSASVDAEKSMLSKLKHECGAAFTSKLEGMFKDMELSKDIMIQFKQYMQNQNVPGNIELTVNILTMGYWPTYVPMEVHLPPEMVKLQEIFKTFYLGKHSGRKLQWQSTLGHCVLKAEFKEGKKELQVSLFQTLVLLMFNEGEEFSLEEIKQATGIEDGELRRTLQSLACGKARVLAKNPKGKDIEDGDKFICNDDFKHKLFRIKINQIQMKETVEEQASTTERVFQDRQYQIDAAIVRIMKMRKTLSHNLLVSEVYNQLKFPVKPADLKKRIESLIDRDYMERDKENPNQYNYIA
TPX2, Q9ULW0, UniProt Q9ULW0, whole entry: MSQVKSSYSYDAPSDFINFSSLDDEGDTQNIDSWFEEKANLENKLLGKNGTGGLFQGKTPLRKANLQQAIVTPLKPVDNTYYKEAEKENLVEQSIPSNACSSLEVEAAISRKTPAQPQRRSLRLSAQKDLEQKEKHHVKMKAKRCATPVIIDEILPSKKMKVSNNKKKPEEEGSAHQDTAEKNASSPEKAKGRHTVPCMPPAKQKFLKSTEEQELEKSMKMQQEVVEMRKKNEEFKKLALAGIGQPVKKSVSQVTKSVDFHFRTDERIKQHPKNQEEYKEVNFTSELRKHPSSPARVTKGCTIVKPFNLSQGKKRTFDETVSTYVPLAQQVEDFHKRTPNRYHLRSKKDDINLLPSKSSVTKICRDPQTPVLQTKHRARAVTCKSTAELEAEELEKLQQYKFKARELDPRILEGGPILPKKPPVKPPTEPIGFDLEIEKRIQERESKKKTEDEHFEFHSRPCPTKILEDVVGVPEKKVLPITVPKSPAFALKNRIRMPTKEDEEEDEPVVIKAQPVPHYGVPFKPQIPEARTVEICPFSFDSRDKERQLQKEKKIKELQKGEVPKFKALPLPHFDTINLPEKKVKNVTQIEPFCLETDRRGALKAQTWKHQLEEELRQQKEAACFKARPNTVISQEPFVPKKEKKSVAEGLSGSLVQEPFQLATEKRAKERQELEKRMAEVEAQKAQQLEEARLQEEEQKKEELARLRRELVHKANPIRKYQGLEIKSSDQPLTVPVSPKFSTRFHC
GLUL, P15104, UniProt P15104, whole entry: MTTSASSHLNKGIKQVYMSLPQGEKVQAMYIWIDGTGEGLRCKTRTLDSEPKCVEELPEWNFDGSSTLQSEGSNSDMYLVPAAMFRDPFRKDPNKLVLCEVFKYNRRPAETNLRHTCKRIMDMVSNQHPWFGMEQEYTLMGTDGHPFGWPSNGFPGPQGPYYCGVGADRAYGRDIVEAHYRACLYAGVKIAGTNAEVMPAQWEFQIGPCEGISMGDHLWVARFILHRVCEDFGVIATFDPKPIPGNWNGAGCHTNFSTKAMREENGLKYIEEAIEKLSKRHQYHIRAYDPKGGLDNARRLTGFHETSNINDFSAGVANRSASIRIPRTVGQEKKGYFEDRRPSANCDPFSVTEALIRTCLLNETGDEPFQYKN
MCM7, P33993, UniProt P33993, whole entry: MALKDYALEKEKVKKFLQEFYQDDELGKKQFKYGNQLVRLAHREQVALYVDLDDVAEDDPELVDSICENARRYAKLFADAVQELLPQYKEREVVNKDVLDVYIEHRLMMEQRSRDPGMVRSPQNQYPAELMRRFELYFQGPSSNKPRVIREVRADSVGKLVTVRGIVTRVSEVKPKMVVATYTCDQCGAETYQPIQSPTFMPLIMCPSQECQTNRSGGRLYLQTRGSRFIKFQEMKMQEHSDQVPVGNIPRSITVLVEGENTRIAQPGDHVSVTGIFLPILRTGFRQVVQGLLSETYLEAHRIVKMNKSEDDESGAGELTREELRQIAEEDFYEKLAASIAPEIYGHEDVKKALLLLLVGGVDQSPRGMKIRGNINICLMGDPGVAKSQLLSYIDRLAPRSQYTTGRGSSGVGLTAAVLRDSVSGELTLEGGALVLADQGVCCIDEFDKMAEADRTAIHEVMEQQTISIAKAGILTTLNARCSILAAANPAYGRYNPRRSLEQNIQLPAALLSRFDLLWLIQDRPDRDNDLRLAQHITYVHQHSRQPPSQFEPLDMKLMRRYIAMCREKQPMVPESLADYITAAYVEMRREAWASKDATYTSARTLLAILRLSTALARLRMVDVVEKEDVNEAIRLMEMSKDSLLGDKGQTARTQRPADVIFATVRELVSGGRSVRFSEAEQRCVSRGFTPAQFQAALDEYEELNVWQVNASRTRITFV
PPP2R5D, Q14738, UniProt Q14738, whole entry: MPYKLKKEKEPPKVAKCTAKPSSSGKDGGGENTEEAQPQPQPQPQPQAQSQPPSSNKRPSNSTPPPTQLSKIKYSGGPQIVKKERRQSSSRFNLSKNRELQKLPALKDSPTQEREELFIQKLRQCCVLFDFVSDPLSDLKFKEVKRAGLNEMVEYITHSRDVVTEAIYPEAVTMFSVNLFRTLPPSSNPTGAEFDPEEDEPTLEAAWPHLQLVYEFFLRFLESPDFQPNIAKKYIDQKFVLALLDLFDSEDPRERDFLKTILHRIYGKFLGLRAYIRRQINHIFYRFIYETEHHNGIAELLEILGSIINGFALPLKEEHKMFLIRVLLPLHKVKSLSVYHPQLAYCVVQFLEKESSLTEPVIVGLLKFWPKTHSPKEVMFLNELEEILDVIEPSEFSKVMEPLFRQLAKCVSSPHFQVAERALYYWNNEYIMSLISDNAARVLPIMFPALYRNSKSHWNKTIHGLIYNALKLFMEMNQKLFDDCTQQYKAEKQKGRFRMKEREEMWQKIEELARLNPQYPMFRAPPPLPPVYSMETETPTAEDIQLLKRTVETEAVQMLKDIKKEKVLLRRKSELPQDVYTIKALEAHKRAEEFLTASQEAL
SEC61A1, P61619, UniProt P61619, whole entry: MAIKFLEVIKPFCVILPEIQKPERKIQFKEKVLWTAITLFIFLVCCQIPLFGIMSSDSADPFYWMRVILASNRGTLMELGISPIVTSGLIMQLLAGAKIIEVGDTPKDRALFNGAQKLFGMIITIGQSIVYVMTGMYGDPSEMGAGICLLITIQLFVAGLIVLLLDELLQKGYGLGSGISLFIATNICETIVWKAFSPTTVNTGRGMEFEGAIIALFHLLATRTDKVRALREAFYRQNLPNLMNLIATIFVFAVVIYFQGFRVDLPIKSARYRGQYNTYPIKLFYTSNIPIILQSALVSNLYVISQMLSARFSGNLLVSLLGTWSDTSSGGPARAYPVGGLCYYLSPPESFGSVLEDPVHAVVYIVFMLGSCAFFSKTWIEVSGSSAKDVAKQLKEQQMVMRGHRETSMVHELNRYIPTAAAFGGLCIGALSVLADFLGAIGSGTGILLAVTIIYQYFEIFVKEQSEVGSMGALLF

B1: NAV2-AS2_2 (peptide)
chain: SVCGQRLSELVLPQS
B2: RP11-12K22.1 (peptide)
chain: MRFLHSECVLMRYDS

Legend:
Assay in all cases: PRISMA enrichment of interactor (LFQ) in peptide spot vs all other peptide spots (log2 fold change); higher = stronger / more specific binding of the interactor to the peptide
ANKRD28, O15084 = molecular target: ANKRD28, O15084
Description: (§1)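 PRISMA: 15-aa overlapping tiles (offset 8 aa) of 60 microproteins, plus SOS1/GLUT1 control peptides, were spot-synthesized on cellulose membranes in triplicate. Membranes were incubated with benzonase-treated HEK293T lysate, and bound proteins were identified by LC-MS/MS with LFQ. Enrichment is the log2 fold change of each protein in one spot versus all other spots. Only interactors passing the significance cutoff are listed.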

CUL4B, Q13620 = molecular target: CUL4B, Q13620
Description: as §1

PSMD2, Q13200 = molecular target: PSMD2, Q13200
Description: as §1

SCAF11, Q99590 = molecular target: SCAF11, Q99590
Description: as §1

TPX2, Q9ULW0 = molecular target: TPX2, Q9ULW0
Description: as §1

CALU, O43852 = molecular target: CALU, O43852
Description: as §1

DAZAP1, Q96EP5 = molecular target: DAZAP1, Q96EP5
Description: as §1

DNAJA1, P31689 = molecular target: DNAJA1, P31689
Description: as §1

EDF1, O60869 = molecular target: EDF1, O60869
Description: as §1

EHD1, Q9H4M9 = molecular target: EHD1, Q9H4M9
Description: as §1

EIF4G2, P78344 = molecular target: EIF4G2, P78344
Description: as §1

FTSJ3, Q8IY81 = molecular target: FTSJ3, Q8IY81
Description: as §1

GLUL, P15104 = molecular target: GLUL, P15104
Description: as §1

HP1BP3, Q5SSJ5 = molecular target: HP1BP3, Q5SSJ5
Description: as §1

IPO4, Q8TEX9 = molecular target: IPO4, Q8TEX9
Description: as §1

IRS4, O14654 = molecular target: IRS4, O14654
Description: as §1

LTV1, Q96GA3 = molecular target: LTV1, Q96GA3
Description: as §1

MCM7, P33993 = molecular target: MCM7, P33993
Description: as §1

MRPS2, Q9Y399 = molecular target: MRPS2, Q9Y399
Description: as §1

MRPS23, Q9Y3D9 = molecular target: MRPS23, Q9Y3D9
Description: as §1

MRPS6, P82932 = molecular target: MRPS6, P82932
Description: as §1

NOC4L, Q9BVI4 = molecular target: NOC4L, Q9BVI4
Description: as §1

NOP14, P78316 = molecular target: NOP14, P78316
Description: as §1

PDCD11, Q14690 = molecular target: PDCD11, Q14690
Description: as §1

PLEC, Q15149 = molecular target: PLEC, Q15149
Description: as §1

PPP2R5D, Q14738 = molecular target: PPP2R5D, Q14738
Description: as §1

PRPF40A, O75400 = molecular target: PRPF40A, O75400
Description: as §1

PSPC1, Q8WXF1 = molecular target: PSPC1, Q8WXF1
Description: as §1

RAB14, P61106 = molecular target: RAB14, P61106
Description: as §1

RARS, P54136 = molecular target: RARS, P54136
Description: as §1

RBFOX2, O43251 = molecular target: RBFOX2, O43251
Description: as §1

RBM10 = molecular target: RBM10
Description: as §1

SEC61A1, P61619 = molecular target: SEC61A1, P61619
Description: as §1

SF3A3, Q12874 = molecular target: SF3A3, Q12874
Description: as §1

TRIM28, Q13263 = molecular target: TRIM28, Q13263
Description: as §1

USO1, O60763 = molecular target: USO1, O60763
Description: as §1

ZNF483, Q8TF39 = molecular target: ZNF483, Q8TF39
Description: as §1

| Binder | PRISMA enrichment of interactor (log2) (ANKRD28, O15084) | PRISMA enrichment of interactor (log2) (CUL4B, Q13620) | PRISMA enrichment of interactor (log2) (PSMD2, Q13200) | PRISMA enrichment of interactor (log2) (SCAF11, Q99590) | PRISMA enrichment of interactor (log2) (TPX2, Q9ULW0) | PRISMA enrichment of interactor (log2) (CALU, O43852) | PRISMA enrichment of interactor (log2) (DAZAP1, Q96EP5) | PRISMA enrichment of interactor (log2) (DNAJA1, P31689) | PRISMA enrichment of interactor (log2) (EDF1, O60869) | PRISMA enrichment of interactor (log2) (EHD1, Q9H4M9) | PRISMA enrichment of interactor (log2) (EIF4G2, P78344) | PRISMA enrichment of interactor (log2) (FTSJ3, Q8IY81) | PRISMA enrichment of interactor (log2) (GLUL, P15104) | PRISMA enrichment of interactor (log2) (HP1BP3, Q5SSJ5) | PRISMA enrichment of interactor (log2) (IPO4, Q8TEX9) | PRISMA enrichment of interactor (log2) (IRS4, O14654) | PRISMA enrichment of interactor (log2) (LTV1, Q96GA3) | PRISMA enrichment of interactor (log2) (MCM7, P33993) | PRISMA enrichment of interactor (log2) (MRPS2, Q9Y399) | PRISMA enrichment of interactor (log2) (MRPS23, Q9Y3D9) | PRISMA enrichment of interactor (log2) (MRPS6, P82932) | PRISMA enrichment of interactor (log2) (NOC4L, Q9BVI4) | PRISMA enrichment of interactor (log2) (NOP14, P78316) | PRISMA enrichment of interactor (log2) (PDCD11, Q14690) | PRISMA enrichment of interactor (log2) (PLEC, Q15149) | PRISMA enrichment of interactor (log2) (PPP2R5D, Q14738) | PRISMA enrichment of interactor (log2) (PRPF40A, O75400) | PRISMA enrichment of interactor (log2) (PSPC1, Q8WXF1) | PRISMA enrichment of interactor (log2) (RAB14, P61106) | PRISMA enrichment of interactor (log2) (RARS, P54136) | PRISMA enrichment of interactor (log2) (RBFOX2, O43251) | PRISMA enrichment of interactor (log2) (RBM10) | PRISMA enrichment of interactor (log2) (SEC61A1, P61619) | PRISMA enrichment of interactor (log2) (SF3A3, Q12874) | PRISMA enrichment of interactor (log2) (TRIM28, Q13263) | PRISMA enrichment of interactor (log2) (USO1, O60763) | PRISMA enrichment of interactor (log2) (ZNF483, Q8TF39) |
| --- | --- | --- | --- | --- | --- | --- | --- | --- | --- | --- | --- | --- | --- | --- | --- | --- | --- | --- | --- | --- | --- | --- | --- | --- | --- | --- | --- | --- | --- | --- | --- | --- | --- | --- | --- | --- | --- |
| B1 | 4.17 | 9.73 | 8.41 | 4.69 | 6.14 | – | – | – | – | – | – | – | – | – | – | – | – | – | – | – | – | – | – | – | – | – | – | – | – | – | – | – | – | – | – | – | – |
| B2 | 4.58 | – | – | – | – | 5.59 | 4.74 | 6.1 | 6.36 | 4.99 | 7.48 | 4.88 | 4.78 | 4.79 | 9.57 | 4.5 | 5.13 | 4.45 | 5.43 | 4.55 | 5.23 | 5.39 | 6.95 | 5.66 | 4.1 | 5.89 | 4.85 | 4.95 | 6.97 | 5.93 | 4 | 5.53 | 5.55 | 4.06 | 4.56 | 4.96 | 7.53 |
